This note sets out measurements from US20060292657A1, “Phex substrates and methods using same” (priority 2003, published 2006).

The chains behind the UniProt entries cited, without tags or fusion partners. Residues count along the entry.
UniProt P78562, residues 46-749: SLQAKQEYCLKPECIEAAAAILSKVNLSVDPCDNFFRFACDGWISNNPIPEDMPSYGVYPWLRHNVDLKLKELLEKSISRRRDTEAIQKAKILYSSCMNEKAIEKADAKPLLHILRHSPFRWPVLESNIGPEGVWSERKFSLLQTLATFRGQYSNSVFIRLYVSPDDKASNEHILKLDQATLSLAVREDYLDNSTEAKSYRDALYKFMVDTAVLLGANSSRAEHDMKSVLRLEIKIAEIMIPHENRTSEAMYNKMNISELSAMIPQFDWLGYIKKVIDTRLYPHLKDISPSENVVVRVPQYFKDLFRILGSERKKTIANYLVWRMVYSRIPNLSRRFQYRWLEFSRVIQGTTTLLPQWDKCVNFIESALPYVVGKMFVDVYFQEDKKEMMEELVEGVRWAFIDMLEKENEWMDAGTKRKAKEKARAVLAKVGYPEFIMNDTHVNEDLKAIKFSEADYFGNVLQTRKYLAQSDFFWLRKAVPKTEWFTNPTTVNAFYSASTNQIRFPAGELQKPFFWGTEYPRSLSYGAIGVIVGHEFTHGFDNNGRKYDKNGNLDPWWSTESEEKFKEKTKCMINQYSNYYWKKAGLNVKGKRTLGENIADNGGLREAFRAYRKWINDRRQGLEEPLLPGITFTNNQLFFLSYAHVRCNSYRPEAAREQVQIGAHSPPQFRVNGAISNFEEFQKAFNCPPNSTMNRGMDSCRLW

These are yes or no findings as the source states them, for the method shown. Some binding calls cover weakened binding; strength is not graded here.

In the assay the target is human recombinant secPHEX (pure soluble form of PHEX) (human) (UniProt P78562). Put plainly: continuous fluorimetric hydrolysis kinetics; affinity inferred from Km.

As for RRHTRSAEDDSERQ (N-terminal Abz; EDDnp attached to the C-terminal Gln) [Abz-R175-…-EDDnp], the binding entry was “binds”. For RRDDSSEQ (N-terminal Abz; EDDnp attached to the C-terminal Gln) [Abz-R506-RDDSSEQ-EDDnp], the binding entry is listed as “binds”. Under LELDSRQ (N-terminal Abz; EDDnp attached to the C-terminal Gln) [Abz-L134-ELDSRQ-EDDnp] stands “binds”; under AWLDSGVQ (N-terminal Abz; EDDnp attached to the C-terminal Gln) [Abz-A110-WLDSGVQ-EDDnp], “binds”; under GSSDAAEQ (N-terminal Abz; EDDnp attached to the C-terminal Gln) [Abz-G386-SSDAAEQ-EDDnp], “binds”.

Take DHLSDTSTQ (N-terminal Abz; EDDnp attached to the C-terminal Gln) [Abz-D125-HLSDTSTQ-EDDnp]: the binding entry is on record as “binds”.
